Taken from: PubChem BioAssay AID1259289 (Sanger Institute, 2017)
This is a random part of 794 deposited reagents. Over the whole deposit, 16 (2%) got an active call. 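Active marks cell loss from silencing alone; drug synergy shows only in the synergy scores, not the calls.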 Viability is capped at 1. Not stated in the record: the amount of reagent, the time to read-out.

Purpose: 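Find kinases whose loss adds to targeted drugs in killing bowel cancer cells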 (primary screen)
System: human LS513 colorectal cancer cells
Knock-down reagent: siRNA pool against human genes
Challenge: anchor drug BYL719 at 1 µM, cetuximab at 5 µg/ml or trametinib at 10 nM, or DMSO vehicle alone; exposure time not given
Read-out: 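Survival versus non-targeting pool for each arm averaged over replicates, robust z-score in the arm with DMSO only, and synergy scores for BYL719, cetuximab or trametinib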
Reading the numbers: robust z-score, siRNA alone (DMSO): higher = more viable cells; strongly negative means essential; viability with DMSO vs control: higher = more viable cells; synergy score with BYL719: higher = stronger combined killing with BYL719; synergy score with cetuximab: higher = stronger combined killing with cetuximab; synergy score with trametinib: higher = stronger combined killing with trametinib
Call rule: 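Called essential when silencing alone under DMSO gives a robust z-score below -3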
Calls: active = essential (knock-down alone); inactive = not essential

| Gene | robust z-score, siRNA alone (DMSO) | viability with DMSO vs control (fraction of control) | synergy score with BYL719 | synergy score with cetuximab | synergy score with trametinib | activity call |
| --- | --- | --- | --- | --- | --- | --- |
| STK24 (serine/threonine kinase 24) | 0.561 | 1 | -0.107 | -0.0968 | -0.0018 | inactive |
| RIPK2 (receptor interacting serine/threonine kinase 2) | 0.427 | 0.981 | 0.217 | 0.121 | 0.0345 | inactive |
| PFKM (phosphofructokinase, muscle) | 0.561 | 1 | -0.0776 | 0.112 | 0.0243 | inactive |
| GAK (cyclin G associated kinase) | 0.561 | 1 | -0.00747 | -0.0929 | 0.0406 | inactive |
| KCNH8 (potassium voltage-gated channel subfamily H member 8) | -0.581 | 0.838 | -0.00855 | 0.218 | 0.0533 | inactive |
| ALPK2 (alpha kinase 2) | 0.561 | 1 | -0.0881 | -0.0968 | 0.0327 | inactive |
| NME6 (NME/NM23 nucleoside diphosphate kinase 6) | -2.26 | 0.599 | -0.0861 | -0.139 | -0.0417 | inactive |
| LMBR1 (limb development membrane protein 1) | 0.561 | 1 | -0.0258 | -0.0968 | -0.00437 | inactive |
| ERBB3 (erb-b2 receptor tyrosine kinase 3) | 0.561 | 1 | -0.134 | -0.0968 | 0.0287 | inactive |
| CSNK1G2 (casein kinase 1 gamma 2) | 0.561 | 1 | -0.134 | -0.0968 | 0.0501 | inactive |
| PIP5K1A (phosphatidylinositol-4-phosphate 5-kinase type 1 alpha) | -0.87 | 0.797 | -0.0896 | -0.0914 | 0.0343 | inactive |
| PRKCZ (protein kinase C zeta) | -2.06 | 0.628 | -0.152 | -0.128 | -0.00129 | inactive |
| TGFBR1 (transforming growth factor beta receptor 1) | 0.561 | 1 | -0.134 | -0.0968 | -0.0383 | inactive |
| DUSP21 (dual specificity phosphatase 21) | 0.561 | 1 | -0.109 | -0.0968 | -0.0468 | inactive |
| RIPK3 (receptor interacting serine/threonine kinase 3) | 0.44 | 0.983 | 0.0353 | 0.0735 | 0.0125 | inactive |
| AGK (acylglycerol kinase) | 0.561 | 1 | -0.134 | -0.0968 | -0.0666 | inactive |
| MAP2K5 (mitogen-activated protein kinase kinase 5) | 0.561 | 1 | -0.134 | -0.0728 | -0.0143 | inactive |
| ALK (ALK receptor tyrosine kinase) | -1.4 | 0.722 | 0.0867 | 0.163 | 0.024 | inactive |
| IRAK4 (interleukin 1 receptor associated kinase 4) | 0.561 | 1 | 0.0246 | 0.0102 | 0.0201 | inactive |
| CDKN2B (cyclin dependent kinase inhibitor 2B) | 0.561 | 1 | -0.134 | -0.0968 | 0.00342 | inactive |
| RSKR (ribosomal protein S6 kinase related) | 0.561 | 1 | -0.012 | -0.0307 | -0.121 | inactive |
| DGKQ (diacylglycerol kinase theta) | 0.561 | 1 | 0.0307 | 0.126 | -0.0586 | inactive |
| PRKAR2B | -2.37 | 0.584 | 0.00948 | -0.167 | -0.0122 | inactive |
| PHKG1 (phosphorylase kinase catalytic subunit gamma 1) | 0.561 | 1 | -0.134 | -0.0968 | 0.0688 | inactive |
| MAPK3 (mitogen-activated protein kinase 3) | 0.561 | 1 | 0.00292 | 0.0277 | 0.0567 | inactive |
| RELA (RELA proto-oncogene, NF-kB subunit) | 0.509 | 0.993 | 0.0938 | -0.0114 | 0.0791 | inactive |
| MAP3K11 (mitogen-activated protein kinase kinase kinase 11) | 0.468 | 0.987 | 0.131 | 0.0518 | -0.0354 | inactive |
| EPHB1 (EPH receptor B1) | 0.561 | 1 | -0.11 | -0.0119 | -0.00475 | inactive |
| PHKB (phosphorylase kinase regulatory subunit beta) | 0.561 | 1 | -0.0905 | -0.0956 | -0.0337 | inactive |
| EPHA1 (EPH receptor A1) | 0.469 | 0.987 | 0.0391 | 0.0923 | 0.0394 | inactive |
| DGKA (diacylglycerol kinase alpha) | -3.11 | 0.479 | -0.0319 | -0.15 | 0.0477 | active |
| MAK (male germ cell associated kinase) | 0.561 | 1 | 0.0483 | -0.0968 | 0.0624 | inactive |
| NEK2 (NIMA related kinase 2) | -0.224 | 0.889 | 0.00471 | 0.0747 | 0.017 | inactive |
| PIK3R3 (phosphoinositide-3-kinase regulatory subunit 3) | 0.561 | 1 | -0.0461 | -0.0968 | 0.0241 | inactive |
| BRD4 (bromodomain containing 4) | 0.561 | 1 | 0.105 | 0.011 | 0.0149 | inactive |
| EFNA4 (ephrin A4) | 0.561 | 1 | 0.0157 | 0.132 | -0.0056 | inactive |
| NUCKS1 | 0.561 | 1 | -0.102 | 0.0678 | -0.0122 | inactive |
| IP6K2 (inositol hexakisphosphate kinase 2) | 0.561 | 1 | -0.134 | -0.0968 | 0.0861 | inactive |
| ITK (IL2 inducible T cell kinase) | 0.561 | 1 | -0.134 | -0.0968 | -0.0422 | inactive |
| AKT2 (AKT serine/threonine kinase 2) | 0.243 | 0.955 | 0.111 | 0.143 | 0.022 | inactive |
| MAST2 (microtubule associated serine/threonine kinase 2) | 0.561 | 1 | 0.0158 | -0.0228 | 0.0166 | inactive |
| FGFR2 (fibroblast growth factor receptor 2) | 0.147 | 0.941 | -0.0293 | -0.00926 | 0.0397 | inactive |
| MAP3K8 (mitogen-activated protein kinase kinase kinase 8) | -2.39 | 0.581 | -0.00123 | 0.0419 | -0.0837 | inactive |
| ETNK1 (ethanolamine kinase 1) | 0.561 | 1 | 0.0997 | 0.00961 | 0.0271 | inactive |
| PDXK (pyridoxal kinase) | 0.561 | 1 | -0.134 | -0.0968 | -0.205 | inactive |
| PBK (PDZ binding kinase) | 0.561 | 1 | 0.0571 | -0.0663 | 0.0611 | inactive |
| MYLK (myosin light chain kinase) | -2.26 | 0.6 | -0.11 | 0.152 | 0.0433 | inactive |
| EGFR (epidermal growth factor receptor) | -0.959 | 0.784 | -0.113 | -0.0681 | -0.0189 | inactive |
| BRD2 (bromodomain containing 2) | 0.561 | 1 | -0.134 | -0.0968 | 0.0368 | inactive |
| ANKK1 (ankyrin repeat and kinase domain containing 1) | -0.776 | 0.81 | 0.00129 | 0.0447 | -0.0222 | inactive |
| TP53RK (TP53 regulating kinase) | 0.0251 | 0.924 | 0.103 | 0.105 | 0.0544 | inactive |
| MAP3K5 (mitogen-activated protein kinase kinase kinase 5) | 0.561 | 1 | -0.0365 | 0.0562 | -0.00379 | inactive |
| UCK2 (uridine-cytidine kinase 2) | 0.561 | 1 | 0.361 | -0.0968 | -0.0201 | inactive |
| FGFRL1 (fibroblast growth factor receptor like 1) | 0.409 | 0.978 | -0.102 | 0.102 | 0.0682 | inactive |
| PLK1 (polo like kinase 1) | -3.65 | 0.402 | 0.0338 | 0.0385 | 0.00597 | active |
| PCK1 (phosphoenolpyruvate carboxykinase 1) | 0.547 | 0.998 | 0.166 | 0.0782 | -0.0409 | inactive |
| STK36 (serine/threonine kinase 36) | 0.561 | 1 | -0.0902 | -0.063 | 0.0864 | inactive |
| SGK2 (serum/glucocorticoid regulated kinase 2) | -0.472 | 0.853 | 0.225 | 0.168 | -0.0286 | inactive |
| KSR2 (kinase suppressor of ras 2) | 0.561 | 1 | -0.0928 | 0.0461 | 0.0564 | inactive |
| FXN (frataxin) | 0.561 | 1 | -0.134 | -0.0968 | -0.00549 | inactive |
| RPS6KA2 (ribosomal protein S6 kinase A2) | -2.8 | 0.523 | -0.043 | -0.0228 | -0.0105 | inactive |
| ALPK3 (alpha kinase 3) | -0.465 | 0.854 | 0.0283 | 0.197 | -0.00233 | inactive |
| CASK (calcium/calmodulin dependent serine protein kinase) | -0.791 | 0.808 | 0.105 | -0.0311 | 0.0294 | inactive |

An excerpt from above, limited to “synergy score with cetuximab”:
TP53RK (TP53 regulating kinase) = 0.105
MAP3K5 (mitogen-activated protein kinase kinase kinase 5) = 0.0562
UCK2 (uridine-cytidine kinase 2) = -0.0968
FGFRL1 (fibroblast growth factor receptor like 1) = 0.102
PLK1 (polo like kinase 1) = 0.0385
PCK1 (phosphoenolpyruvate carboxykinase 1) = 0.0782
STK36 (serine/threonine kinase 36) = -0.063
SGK2 (serum/glucocorticoid regulated kinase 2) = 0.168
KSR2 (kinase suppressor of ras 2) = 0.0461
